PubChem BioAssay AID1224830 – NIAID | 2016

Purpose: 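Regulators of TLR4 signalling towards TNF-alpha in macrophage-like cells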 (primary screen)
Cell system: human THP-1 monocytic leukaemia cells, TNF dual-luciferase reporter clone, PMA-differentiated to macrophage-like cells
Reagent: siRNA pool against human genes, 50 nM
Duration: LPS for 4 h, given about 3 days after siRNA transfection
Conditions: bacterial LPS (TLR4 ligand), 10 ng/ml
Read-out: 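Ratio of firefly to renilla light, scaled to the plate median and expressed as a robust z-score per replicate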
Direction: TNF reporter robust z-score: higher = stronger TNF reporter response to LPS
Rule for the call: 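a well is active when its z-score exceeds 2.8 or falls below -1.5; control wells carry no call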
Here is an unselected part of about 18,000 reagents. In the full data, about 2,900 (16%) are marked active. 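Calls are made per well; low scores hint the gene aids the LPS response, high scores that it dampens it.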 A number with no mark means an inactive call. Repeated entries: four replicate wells of each siRNA pool.

| target | TNF reporter robust z-score |
| --- | --- |
| KCTD11 (potassium channel tetramerization domain containing 11) | -0.14 |
| KCTD11 (potassium channel tetramerization domain containing 11) | 1.49 |
| KCTD11 (potassium channel tetramerization domain containing 11) | 1.91 |
| KCTD11 (potassium channel tetramerization domain containing 11) | 1.38 |
| SULT1C2 (sulfotransferase family 1C member 2) | -0.41 |
| SULT1C2 (sulfotransferase family 1C member 2) | -0.09 |
| SULT1C2 (sulfotransferase family 1C member 2) | -0.74 |
| SULT1C2 (sulfotransferase family 1C member 2) | -0.34 |
| LAMP3 (lysosome associated membrane protein 3) | -1.08 |
| LAMP3 (lysosome associated membrane protein 3) | -0.84 |
| LAMP3 (lysosome associated membrane protein 3) | -1.15 |
| LAMP3 (lysosome associated membrane protein 3) | -0.49 |
| ZNF354A (zinc finger protein 354A) | 0.93 |
| ZNF354A (zinc finger protein 354A) | 0.85 |
| ZNF354A (zinc finger protein 354A) | 1.22 |
| ZNF354A (zinc finger protein 354A) | 1.3 |
| RBM42 (RNA binding motif protein 42) | -0.72 |
| RBM42 (RNA binding motif protein 42) | -1.35 |
| RBM42 (RNA binding motif protein 42) | -0.98 |
| RBM42 (RNA binding motif protein 42) | -1.13 |
| GPR6 (G protein-coupled receptor 6) | 0.05 |
| GPR6 (G protein-coupled receptor 6) | 1.23 |
| GPR6 (G protein-coupled receptor 6) | 1.17 |
| GPR6 (G protein-coupled receptor 6) | 0.76 |
| ANO3 (anoctamin 3) | -0.37 |
| ANO3 (anoctamin 3) | -1.06 |
| ANO3 (anoctamin 3) | -0.27 |
| ANO3 (anoctamin 3) | -0.67 |
| USP28 (ubiquitin specific peptidase 28) | -0.19 |
| USP28 (ubiquitin specific peptidase 28) | 0.76 |
| USP28 (ubiquitin specific peptidase 28) | 0.27 |
| USP28 (ubiquitin specific peptidase 28) | 1.53 |
| NDUFS1 (NADH:ubiquinone oxidoreductase core subunit S1) | -0.26 |
| NDUFS1 (NADH:ubiquinone oxidoreductase core subunit S1) | -0.03 |
| NDUFS1 (NADH:ubiquinone oxidoreductase core subunit S1) | -0.09 |
| NDUFS1 (NADH:ubiquinone oxidoreductase core subunit S1) | 0.77 |
| LRRC40 (leucine rich repeat containing 40) | -1.94 (active) |
| LRRC40 (leucine rich repeat containing 40) | -1.45 |
| LRRC40 (leucine rich repeat containing 40) | -1.6 (active) |
| SLC22A5 | 0.29 |
| SLC22A5 | 0.76 |
| SLC22A5 | 0.28 |
| SLC22A5 | 1.45 |
| CAMK2N1 (calcium/calmodulin dependent protein kinase II inhibitor 1) | 0.24 |
| CAMK2N1 (calcium/calmodulin dependent protein kinase II inhibitor 1) | -0.48 |
| CAMK2N1 (calcium/calmodulin dependent protein kinase II inhibitor 1) | 1.19 |
| CAMK2N1 (calcium/calmodulin dependent protein kinase II inhibitor 1) | -0.27 |
| SLC41A3 | 2.45 |
| SLC41A3 | 1.09 |
| SLC41A3 | 1.69 |
| SLC41A3 | 2 |
| ELP4 (elongator acetyltransferase complex subunit 4) | 0.68 |
| ELP4 (elongator acetyltransferase complex subunit 4) | 0.95 |
| ELP4 (elongator acetyltransferase complex subunit 4) | 0.25 |
| ELP4 (elongator acetyltransferase complex subunit 4) | 1.69 |
| CDKL1 (cyclin dependent kinase like 1) | -1.23 |
| CDKL1 (cyclin dependent kinase like 1) | -1.56 (active) |
| CDKL1 (cyclin dependent kinase like 1) | -1.11 |
| CDKL1 (cyclin dependent kinase like 1) | -0.88 |
| EYA1 (EYA transcriptional coactivator and phosphatase 1) | -0.13 |
| EYA1 (EYA transcriptional coactivator and phosphatase 1) | -0.74 |
| EYA1 (EYA transcriptional coactivator and phosphatase 1) | -0.32 |
| EYA1 (EYA transcriptional coactivator and phosphatase 1) | -0.27 |
| NDUFA7 (NADH:ubiquinone oxidoreductase subunit A7) | -0.44 |
| NDUFA7 (NADH:ubiquinone oxidoreductase subunit A7) | 0.68 |
| NDUFA7 (NADH:ubiquinone oxidoreductase subunit A7) | 0.12 |
| NDUFA7 (NADH:ubiquinone oxidoreductase subunit A7) | 0.66 |
| SLC25A6 | 2.69 |
| SLC25A6 | 2.01 |
| SLC25A6 | 3.17 (active) |
| SLC25A6 | 3.87 (active) |
| ZDHHC6 (zDHHC palmitoyltransferase 6) | 1.18 |
| ZDHHC6 (zDHHC palmitoyltransferase 6) | 0.27 |
| ZDHHC6 (zDHHC palmitoyltransferase 6) | 0.82 |
| ZDHHC6 (zDHHC palmitoyltransferase 6) | 1.51 |
| ABI3 (ABI family member 3) | -0.27 |
| ABI3 (ABI family member 3) | 0.2 |
| ABI3 (ABI family member 3) | 0.04 |
| ABI3 (ABI family member 3) | 0.17 |
| CHMP5 (charged multivesicular body protein 5) | -0.32 |
| CHMP5 (charged multivesicular body protein 5) | 0.38 |
| CHMP5 (charged multivesicular body protein 5) | 0.17 |
| CHMP5 (charged multivesicular body protein 5) | 1.74 |
| KRTAP19-4 (keratin associated protein 19-4) | 2.1 |
| KRTAP19-4 (keratin associated protein 19-4) | 0.4 |
| KRTAP19-4 (keratin associated protein 19-4) | 0.19 |
| KRTAP19-4 (keratin associated protein 19-4) | 0.62 |
| WDR86 (WD repeat domain 86) | 0.69 |
| WDR86 (WD repeat domain 86) | -0.85 |
| WDR86 (WD repeat domain 86) | 0.54 |
| WDR86 (WD repeat domain 86) | 0.15 |
| RAD50 (RAD50 double strand break repair protein) | -0.32 |
| RAD50 (RAD50 double strand break repair protein) | 0.81 |
| RAD50 (RAD50 double strand break repair protein) | -0.63 |
| RAD50 (RAD50 double strand break repair protein) | -0.27 |
| MROH9 (maestro heat like repeat family member 9) | 0.63 |
| MROH9 (maestro heat like repeat family member 9) | 0.47 |
| MROH9 (maestro heat like repeat family member 9) | 0.18 |
| MROH9 (maestro heat like repeat family member 9) | -0.18 |
| RNGTT (RNA guanylyltransferase and 5'-phosphatase) | -0.34 |
| RNGTT (RNA guanylyltransferase and 5'-phosphatase) | 1.83 |
| RNGTT (RNA guanylyltransferase and 5'-phosphatase) | 0.26 |
| RNGTT (RNA guanylyltransferase and 5'-phosphatase) | -0.28 |
| POU5F2 (POU domain class 5, transcription factor 2) | -1.12 |
| POU5F2 (POU domain class 5, transcription factor 2) | 0.41 |
| POU5F2 (POU domain class 5, transcription factor 2) | -0.2 |
| POU5F2 (POU domain class 5, transcription factor 2) | 0.05 |
| MVK (mevalonate kinase) | -1.01 |
| MVK (mevalonate kinase) | -0.8 |
| MVK (mevalonate kinase) | -1.22 |
| MVK (mevalonate kinase) | -1.03 |
| RFC4 (replication factor C subunit 4) | -0.33 |
| RFC4 (replication factor C subunit 4) | 0.08 |
| RFC4 (replication factor C subunit 4) | 0.03 |
| RFC4 (replication factor C subunit 4) | 0.88 |
| CNPY4 (canopy FGF signaling regulator 4) | 0.5 |
| CNPY4 (canopy FGF signaling regulator 4) | 0.26 |
| CNPY4 (canopy FGF signaling regulator 4) | -0.72 |
| CNPY4 (canopy FGF signaling regulator 4) | 0.34 |
| LAMA4 (laminin subunit alpha 4) | -1.08 |
| LAMA4 (laminin subunit alpha 4) | -0.68 |
| LAMA4 (laminin subunit alpha 4) | -1.07 |
| LAMA4 (laminin subunit alpha 4) | -0.83 |
| ATG13 (autophagy related 13) | -1.51 (active) |
| ATG13 (autophagy related 13) | -0.42 |
| ATG13 (autophagy related 13) | -0.7 |
| ATG13 (autophagy related 13) | -1.22 |
| STAU1 (staufen double-stranded RNA binding protein 1) | 2.19 |
| STAU1 (staufen double-stranded RNA binding protein 1) | 3.22 (active) |
| STAU1 (staufen double-stranded RNA binding protein 1) | 2.16 |
| STAU1 (staufen double-stranded RNA binding protein 1) | 1.82 |
| PPP2R2A (protein phosphatase 2 regulatory subunit Balpha) | 1.25 |
| PPP2R2A (protein phosphatase 2 regulatory subunit Balpha) | 0.81 |
| PPP2R2A (protein phosphatase 2 regulatory subunit Balpha) | 0.48 |
| PPP2R2A (protein phosphatase 2 regulatory subunit Balpha) | 1.08 |
| MAPK8IP2 (mitogen-activated protein kinase 8 interacting protein 2) | -0.25 |
| MAPK8IP2 (mitogen-activated protein kinase 8 interacting protein 2) | 1.37 |
| MAPK8IP2 (mitogen-activated protein kinase 8 interacting protein 2) | -0.37 |
| MAPK8IP2 (mitogen-activated protein kinase 8 interacting protein 2) | -1.45 |
| TTYH1 (tweety family member 1) | -0.58 |
| TTYH1 (tweety family member 1) | 0.4 |
| TTYH1 (tweety family member 1) | 2.35 |
| TTYH1 (tweety family member 1) | 1.57 |
